Each structure is given as a SMILES string.

The text below walks through data of paper PMC9518283 (Journal of Enzyme Inhibition and Medicinal Chemistry, 2022).

For this series the following is noted: class from PAMPA Pe. On the technique in general: PAMPA measures passive passage across an artificial lipid membrane.

Take `NS(=O)(=O)c1cc(C(=O)O)c(NCc2ccco2)cc1Cl` [Furosemide]: the CNS predicted availability entry is reported as “CNS− (CNS – (low BBB permeation predicted): Pe (×10^−6 cm s^−1) < 2.0)”.
